The entries are a selection whose mix differs from that of the whole data set. Active and inactive are the calls of the source. No stated cut-off is given here; in the data, active means inhibition above about 11%; inactive means the rest.
assay: growth loss of phage-infected E. coli, primary screen, RecBCD inhibitor project, absorbance, with phage, HTS (AID 651602); conditions: at 11.9 µM, hits give high values

SMILES | inhibition
O=C1OCCN1/N=C/c1ccc([N+](=O)[O-])o1 | active: 99.7%
CCn1cc(C(=O)O)c(=O)c2cc(F)c(N3CCN(C)CC3)cc21 | active: 103%
O=C(N/N=C/c1ccc(O)c2ncccc12)c1cccc(Br)c1 | active: 18.1%
